In patent US20240181089A1 (priority 2021, published 2024):

Experiment: general procedure: peptide synthesis; EDC-HCl/NHS, DIPEA
Details: conjugation step

For Boc-NH-PEG4-cRGDfK, which conjugation yield is on record?
Its conjugation yield is 80%.
